According to US20060009506A1, “Drugs for the treatment of neoplastic disorders” (Odyssey Thera, Inc., priority 2004, published 2006):

How the values were obtained:
Assay type in all cases: cell-based
[1] = system: U-87 MG cells; assay: MTT proliferation assay, glioblastoma U-87 MG; conditions: Homo sapiens, Tumor Cell: Glioblastoma (U-87 MG), 120 hours, concentrations tested in microM
From the text: (§1) We first screened compounds derived from the known pharmacopeia and from a selected natural product collection using two types of assays: (a) measurements of post-translational modifications of proteins; (b) measurements of protein-protein interactions. For the purpose of measuring post-translational modifications of proteins, we used immunofluorescence methods combined with phospho-specific antibodies. For the purpose of quantifying and localizing protein complexes we used fluorescence methods based on protein-fragment complementation assays (PCA). ‘Hits’ from the initial screens were then tested for antiproliferative activity in up to 5 different human tumor cell lines. […] For drugs with antiproliferative activity in PC-3 cells, dose-response curves were generated to determine the EC50 for antiproliferative activity and additional tumor cell lines were tested to determine the breadth of activity. Methods for assay development, validation, screening, and testing of antiproliferative activity are described below.
(§2) Cells were maintained in various media as follows: A549, LoVo and PC-3 (Ham's F12K medium with 2 mM L-glutamine and 1.5 g/L sodium bicarbonate), MIA PaCa-2 (Dulbecco's modified Eagle's medium with 4 mM L-glutamine and 4.5 g/L glucose), U87-MG (MEM+Earle's BSS). […] Background absorbance was established by wells containing medium but no cells. […]

[2] = system: PC-3 cells; assay: MTT proliferation assay, prostate adenocarcinoma PC-3; conditions: Homo sapiens, Tumor Cell: Prostate (PC-3), 120 hours, concentrations tested in microM
From the text: as §1, §2

[3] = system: LoVo cells; assay: MTT proliferation assay, colon adenocarcinoma LoVo; conditions: Homo sapiens, Tumor Cell: Colon (LoVo), 120 hours, concentrations tested in microM
From the text: as §1, §2

[4] = system: A549 cells; assay: MTT proliferation assay, non-small cell lung carcinoma A549; conditions: Homo sapiens, A549, 120 h, Tumor Cell: NSCLC (A549), concentrations tested in microM
From the text: as §1, §2

[5] = system: MIA PaCa-2 cells; assay: MTT proliferation assay, pancreatic carcinoma MIA PaCa-2; conditions: Homo sapiens, MIA PaCa-2, 120 h, Tumor Cell: Pancreatic (MIA PaCa-2), concentrations tested in microM
From the text: as §1, §2

IC50 [1]: 40 µM
IC50 [2]: 34.3 µM
IC50 [3]: 19.1 µM
IC50 [4]: 41.6 µM
IC50 [5]: 5.24 µM
Compound: CC(C)OC(=O)C(C)(C)Oc1ccc(C(=O)c2ccc(Cl)cc2)cc1 [Fenofibrate]
